Results deposited as PubChem BioAssay AID1224829 (NIAID, 2016)

- Screen: 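Secondary check of hits that alter LPS-induced p65 translocation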 (follow-up of hits)
- Cells: mouse RAW264.7 G9 macrophage reporter cells
- Reagents: single siRNA against mouse genes, 100 nM
- Duration: 2 days of siRNA knock-down, then 40 min of LPS before fixing
- Conditions: LPS (Salmonella minnesota R595) at 10 ng/ml
- Measured: 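Imaging of GFP-p65 after 40 min of LPS; nuclear over perinuclear ring intensity ratio, scaled to plate median and non-targeting control wells, given as z-score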
- Reading the numbers: p65 translocation z-score and gene median z-score, per vendor: higher = more nuclear NF-kappaB p65 after LPS
- Rule for the call: 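An siRNA is called active when the mean z-score of its two replicates is above 2 or below -2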
- Meaning of the calls: active = changed p65 translocation (either direction); inactive = no clear change
In all, the deposit lists about 3,800 reagents; this is an unselected part. 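Calls cover raised and lowered translocation; gene median uses one vendor's three siRNAs; qiagen siRNAs acted more weakly than ambion siRNAs.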 Reagents against one gene are numbered here.

| gene | reagent | siRNA vendor or control pool | p65 translocation z-score, replicate mean | p65 translocation z-score, replicate 1 | p65 translocation z-score, replicate 2 | gene median z-score, per vendor | Outcome |
| --- | --- | --- | --- | --- | --- | --- | --- |
| Rnf8 | 1 | ambion single siRNA | -2.92 | -3.4 | -2.44 | -2.92 | active |
| Rnf8 | 2 | ambion single siRNA | -3.71 | -1.78 | -5.64 | -2.92 | active |
| Rnf8 | 3 | ambion single siRNA | -2.68 | -4.06 | -1.29 | -2.92 | active |
| Rnf8 | 4 | qiagen single siRNA | -0.354 | 0.242 | -0.95 | -0.354 | inactive |
| Rnf8 | 5 | qiagen single siRNA | -0.663 | 0.616 | -1.94 | -0.354 | inactive |
| Rnf8 | 6 | qiagen single siRNA | -1.04 | -2.78 | 0.695 | -0.354 | inactive |
| Bmp3 | 1 | ambion single siRNA | 4.61 | 6.12 | 3.11 | -4.6 | active |
| Bmp3 | 2 | ambion single siRNA | – | – | – | -4.6 | inactive |
| Bmp3 | 3 | ambion single siRNA | -13.3 | -14.3 | -12.3 | -4.6 | active |
| Bmp3 | 4 | qiagen single siRNA | 1.37 | 0.458 | 2.28 | 0.851 | inactive |
| Bmp3 | 5 | qiagen single siRNA | 1.69 | 1.24 | 2.14 | 0.851 | inactive |
| Bmp3 | 6 | qiagen single siRNA | -3.02 | -1.77 | -4.28 | 0.851 | active |

3 neighbouring reagents from above, for reference:
| gene | reagent | siRNA vendor or control pool | p65 translocation z-score, replicate mean | p65 translocation z-score, replicate 1 | p65 translocation z-score, replicate 2 | gene median z-score, per vendor | Outcome |
| --- | --- | --- | --- | --- | --- | --- | --- |
| Bmp3 | 2 | ambion single siRNA | – | – | – | -4.6 | inactive |
| Bmp3 | 3 | ambion single siRNA | -13.3 | -14.3 | -12.3 | -4.6 | active |
| Bmp3 | 4 | qiagen single siRNA | 1.37 | 0.458 | 2.28 | 0.851 | inactive |

Continued:
| gene | reagent | siRNA vendor or control pool | p65 translocation z-score, replicate mean | p65 translocation z-score, replicate 1 | p65 translocation z-score, replicate 2 | gene median z-score, per vendor | Outcome |
| --- | --- | --- | --- | --- | --- | --- | --- |
| Was | 1 | ambion single siRNA | -1.38 | -1.14 | -1.63 | -1.25 | inactive |
| Was | 2 | ambion single siRNA | -1.21 | -1.36 | -1.06 | -1.25 | inactive |
| Was | 3 | ambion single siRNA | -1.74 | -2.73 | -0.748 | -1.25 | inactive |
| Was | 4 | qiagen single siRNA | -1.35 | -2.85 | 0.162 | -0.85 | inactive |
| Was | 5 | qiagen single siRNA | -0.0204 | 0.369 | -0.41 | -0.85 | inactive |
| Was | 6 | qiagen single siRNA | -2.18 | -1.29 | -3.08 | -0.85 | active |
| Bok | 1 | ambion single siRNA | -6.26 | -6.54 | -5.98 | -2.87 | active |
| Bok | 2 | ambion single siRNA | -1.11 | 0.87 | -3.08 | -2.87 | inactive |
| Bok | 3 | ambion single siRNA | -2.4 | -2.65 | -2.15 | -2.87 | active |
